# Laboratory results as given in article PMC7819943, “Rice protein-binding microarrays: a tool to detect cis-acting elements near promoter regions in rice”.
# The chains behind the UniProt entries cited, without tags or fusion partners.
# UniProt Q0JBA9, entry or part of it: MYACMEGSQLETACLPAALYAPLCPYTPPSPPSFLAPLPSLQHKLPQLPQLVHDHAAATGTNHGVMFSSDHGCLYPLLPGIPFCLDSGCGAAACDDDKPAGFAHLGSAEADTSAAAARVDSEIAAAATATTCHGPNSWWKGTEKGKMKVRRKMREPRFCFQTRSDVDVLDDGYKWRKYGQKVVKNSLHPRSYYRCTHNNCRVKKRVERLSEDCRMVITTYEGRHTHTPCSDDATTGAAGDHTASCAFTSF
# The other results are listed elsewhere or left out.
# Biological target: OsWRKY34 (Oryza sativa, UniProt Q0JBA9 1-250)
# Assay: protein-binding microarray (RPBM); PBS, 2% BSA, 51.3 ng/ul salmon testes DNA, 50 uM zinc acetate, 200 nM TF, 25 C, 1 h; high values mean tight binding
# Details: protein: recombinant; tags: N-terminal polyhistidine and DsRed monomer fusion (pET32a); label: CyDye5-dUTP incorporated in the synthesized complementary strand; 3' TTTTT single-stranded linker to array surface; dsDNA, one strand shown
# How it was run: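 The binding signal is fluorescence intensity per feature, in arbitrary units, read on an Axon 4000B scanner. Polyhistidine- and DsRed-tagged transcription factors (N-terminal fusions) from E. coli BL21-CodonPlus were purified on Ni–NTA and applied at 200 nM for 1 h at 25 °C to a double-stranded, BSA-blocked custom Agilent array in buffer with 50 µM zinc acetate.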
row,Sequence,binding signal
1,GAGAGAGACCTATCCACTCCTCCATGCGGCATCGCACCTCCGGAGTCACCTAGTGCAG,8070 fluorescence intensity (a.u.)
2,TTGACGCCGTTGACTTTTTAAAAAATATTTGACCGTTCTTCGGAGTCACCTAGTGCAG,37100 fluorescence intensity (a.u.)
3,CACTTCACTTCACGCATCCGCTTCGAGCACACAACGAGTCCGGAGTCACCTAGTGCAG,8360 fluorescence intensity (a.u.)
4,CCGCCATCTCCACCTCCGCCGCCGCGTCCAACTCCACCTTCGGAGTCACCTAGTGCAG,9110 fluorescence intensity (a.u.)
5,AAGCGGTACCATGGGCGGGAGGGTATTTCTGTCCTTTTGTCGGAGTCACCTAGTGCAG,17600 fluorescence intensity (a.u.)
6,TTCATATACGCATTGTTTCGATCCATGTCGACTCACACCCCGGAGTCACCTAGTGCAG,8190 fluorescence intensity (a.u.)
7,ATGACGCTATTTTACCTCACGTACCTCTTGTCCGTATGGCCGGAGTCACCTAGTGCAG,8560 fluorescence intensity (a.u.)
8,CCACTCCAACGCCATCACTCGTTCACTCCTACCCACGACACGGAGTCACCTAGTGCAG,13400 fluorescence intensity (a.u.)
9,TCCACCTGCCCCACTGCAGGCTGCAGCTCACACCCAAACGCGGAGTCACCTAGTGCAG,8120 fluorescence intensity (a.u.)
10,AAAGCTTCTTTTCACACCACTCATCTGCACACTTGCACTCCGGAGTCACCTAGTGCAG,10600 fluorescence intensity (a.u.)
11,ACGGGTTATGGGTTAAGAGTGGCATTTGGGCGAATCCCATCGGAGTCACCTAGTGCAG,9200 fluorescence intensity (a.u.)
12,CTTCTCTCTTTTCTTGATGTCCTTTTCTATTTTGCTTACCCGGAGTCACCTAGTGCAG,11800 fluorescence intensity (a.u.)
13,ATCACCACTCTCCAACATTTATCCGCCATACCTCGCTCCACGGAGTCACCTAGTGCAG,9850 fluorescence intensity (a.u.)
14,TTTTACGTATCTAGGTATTTGCTCAAGTTGTTCTTACCTTCGGAGTCACCTAGTGCAG,8140 fluorescence intensity (a.u.)
15,GAACATCCCACCTGCCCCAACCATGTCGGCGCCGCCGCCGCGGAGTCACCTAGTGCAG,8330 fluorescence intensity (a.u.)
16,CTGGGGATTGGGGAGGAGGCCGCCGGGGCGAGGCGGGAGACGGAGTCACCTAGTGCAG,10200 fluorescence intensity (a.u.)
17,ACTCCATTCGTTTCATATTATAAGACTTTCTAGCATTATCCGGAGTCACCTAGTGCAG,10200 fluorescence intensity (a.u.)
18,CCCATTTTACCATCTTGGAATCGTTGCATCTCTCAGACTCCGGAGTCACCTAGTGCAG,10600 fluorescence intensity (a.u.)
19,GTTGTTCTTGGCGGCTAGGTCGTGGGGTTTTCTTGTTTCGCGGAGTCACCTAGTGCAG,22800 fluorescence intensity (a.u.)
20,GAAAAGGAACTAGTAATAAGTAGTTAATTCTAGCTTAGCACGGAGTCACCTAGTGCAG,8190 fluorescence intensity (a.u.)
21,TGTATTGCAACACTAGTTGTCACTAGCTAGCCTATTTAGTCGGAGTCACCTAGTGCAG,8660 fluorescence intensity (a.u.)

row,Sequence,binding signal
1,TTATATATAGCCACACACGTCCTTGTCTAGTCCACTACACCGGAGTCACCTAGTGCAG,9710 fluorescence intensity (a.u.)
2,CCGGCCCAAGTCAAGTGCTCTGTTCTGTTCTCAGCCAACCCGGAGTCACCTAGTGCAG,9180 fluorescence intensity (a.u.)
3,TTTCTTCTTCTCGTCTCTTCTCGCCGCCGCCGCCGCAATGCGGAGTCACCTAGTGCAG,9300 fluorescence intensity (a.u.)
4,GGTCGGGTCGGGTCGGATCCCCTCGCCGCAACGGCCTTAGCGGAGTCACCTAGTGCAG,11500 fluorescence intensity (a.u.)
5,AATCTTGAAATTTGTGTACGTCTTATATTATACATCTCACCGGAGTCACCTAGTGCAG,8810 fluorescence intensity (a.u.)
6,ACATGACCCACGGGCCCCATCTCCCCATCTTCTTCTTCCTCGGAGTCACCTAGTGCAG,8190 fluorescence intensity (a.u.)
7,GTTTTTAGTCGACATGATAGCTTTGACCCTGTTGACTGGCCGGAGTCACCTAGTGCAG,11200 fluorescence intensity (a.u.)
8,CTTTGGCTCCAGTTGTCCGTGATGCCTCCGTCTCTGATCCCGGAGTCACCTAGTGCAG,8060 fluorescence intensity (a.u.)
9,TCCATCTCCATTGGCCACCCACCACCATTGTCTTCTCCTCCGGAGTCACCTAGTGCAG,8110 fluorescence intensity (a.u.)
10,CTTATTTCAAATGTGTGGGTATACATATGTGCACATATATCGGAGTCACCTAGTGCAG,8440 fluorescence intensity (a.u.)
11,GCGATCACCACTTCACCGCCGGGTTCTGCCTCGCATTCTGCGGAGTCACCTAGTGCAG,10800 fluorescence intensity (a.u.)
12,CTGAATTTGCTGCTGCCGTTTCTGAATTTGTGGTGGTTTCCGGAGTCACCTAGTGCAG,8150 fluorescence intensity (a.u.)
13,TTTGCGCTCTGTTGGGTAGACCTCCTCGTTGGCATCTTGACGGAGTCACCTAGTGCAG,9910 fluorescence intensity (a.u.)
14,CACACACTTGGATGCTAGCTGCACCGCCATTTGTTTATTGCGGAGTCACCTAGTGCAG,8720 fluorescence intensity (a.u.)
15,AAAGGGGCGACCCCATCGGTCGGGTCGGGTTGGTTGGCGCCGGAGTCACCTAGTGCAG,8740 fluorescence intensity (a.u.)
16,TGGATCCGGTTCTTCTTCGCCGACGCCCCGGCCTCCGCCTCGGAGTCACCTAGTGCAG,9040 fluorescence intensity (a.u.)
17,GTAATGGTTGTGTGTATCCCTTGTTCGTGTAGAAGCCAGACGGAGTCACCTAGTGCAG,10800 fluorescence intensity (a.u.)
18,TCTTGTAGTCATCTCTCGCTCGCACACAACTAATAACCAACGGAGTCACCTAGTGCAG,8330 fluorescence intensity (a.u.)
19,TTCATTTTTTAAGGGTATGTTGTCTTATTTCTGCATGTCTCGGAGTCACCTAGTGCAG,10800 fluorescence intensity (a.u.)
20,TCTTATCCACTATCCTTTCCTACGTGGTGTTCGTTTAGTGCGGAGTCACCTAGTGCAG,9210 fluorescence intensity (a.u.)
21,GCACTCCTCGTTCGTCCGCCTCCAACGCTCACTCGCGCGACGGAGTCACCTAGTGCAG,12200 fluorescence intensity (a.u.)

row,Sequence,binding signal
1,ATTCTCTAAATGTTTGACGCTGTTGACTTTTTAAAACATGCGGAGTCACCTAGTGCAG,16600 fluorescence intensity (a.u.)
2,TATATCACATGTTAGTACATCTTCTTATTTTTTTTATAACCGGAGTCACCTAGTGCAG,8100 fluorescence intensity (a.u.)
3,GGAGTATATTCCTACTAAGTTGTTTACTCATTCTGTTCTACGGAGTCACCTAGTGCAG,9650 fluorescence intensity (a.u.)
4,CCCTTGGGTTGGAAACTCTCGCCATCGCCGTTGTCATCGTCGGAGTCACCTAGTGCAG,8770 fluorescence intensity (a.u.)
5,AAATACGCACACCTTGCCACCCTCCACTTAGGGAGCGTTCCGGAGTCACCTAGTGCAG,8290 fluorescence intensity (a.u.)
6,GTCGCGACGCCACCACTGCTCGGTTCTCTACCCCATCTCGCGGAGTCACCTAGTGCAG,10000 fluorescence intensity (a.u.)
7,GCGTACGGTTTCCTTTTTTTTCTGTTTTTTTTCTCTCTTCCGGAGTCACCTAGTGCAG,9130 fluorescence intensity (a.u.)
8,GTGCGACTTCTAGGCTTTCGTTGTGTAGGTTTTGTTTCTTCGGAGTCACCTAGTGCAG,11800 fluorescence intensity (a.u.)
9,TCTGTCGCCTGTTCTTCTTCTTCTCACGATTTTTTTCCCCCGGAGTCACCTAGTGCAG,8280 fluorescence intensity (a.u.)
10,TCGAGGATTTTGTTCCTTGCACACATATTGATATACTGACCGGAGTCACCTAGTGCAG,8720 fluorescence intensity (a.u.)
11,CAATTATTCTTGTTATTTACTCATCTCATTTTCAGTGAGTCGGAGTCACCTAGTGCAG,8310 fluorescence intensity (a.u.)
12,GCTGCTCGTCTTCTCGTTCTCTCGCTCGCGCATCGTCTCTCGGAGTCACCTAGTGCAG,16300 fluorescence intensity (a.u.)
13,TAGTGTCGTATTGGAGTATTTCATAGCTATTTTTGTACCGCGGAGTCACCTAGTGCAG,8040 fluorescence intensity (a.u.)
14,GCGTTTCCGTTTTTCCTTCTACATTAGTGTGCTTACGTTTCGGAGTCACCTAGTGCAG,8850 fluorescence intensity (a.u.)
15,TTCCACACAACATATAATTCGTGTCTCTCTGCTTCATCACCGGAGTCACCTAGTGCAG,12600 fluorescence intensity (a.u.)
16,AACAGTGGTATCGTTGTGTAGGGGTGGGCTGGCAAAAAGACGGAGTCACCTAGTGCAG,20000 fluorescence intensity (a.u.)
17,AACTCTCTGTACCTATCACAATTTTCCGCGCCTTAAAATACGGAGTCACCTAGTGCAG,9800 fluorescence intensity (a.u.)
18,AGCCATACCCCGCACACCACGCCACGCAGATCTTTTCTCCCGGAGTCACCTAGTGCAG,8950 fluorescence intensity (a.u.)
19,CCAGATTACACCCTCACCTTTTTTTTCTCTCTTACTCTCACGGAGTCACCTAGTGCAG,9890 fluorescence intensity (a.u.)
20,TGTTTCAGCCATCAATCCGCGTTTTGGTGTCGCGTCGAATCGGAGTCACCTAGTGCAG,8360 fluorescence intensity (a.u.)
21,AGGATTTTTTTTTTGTCAACGTATTTCTATTACCTGCTGTCGGAGTCACCTAGTGCAG,9630 fluorescence intensity (a.u.)

# Taken from above:
# GCGTACGGTTTCCTTTTTTTTCTGTTTTTTTTCTCTCTTCCGGAGTCACCTAGTGCAG – binding signal: 9130 fluorescence intensity (a.u.)
# GTCGCGACGCCACCACTGCTCGGTTCTCTACCCCATCTCGCGGAGTCACCTAGTGCAG – binding signal: 10000 fluorescence intensity (a.u.)

# Remaining list, next part.

row,Sequence,binding signal
1,CCATTCTTGTCCAACCCACTCTCGTCATATCCCATTGCCACGGAGTCACCTAGTGCAG,8800 fluorescence intensity (a.u.)
2,CTATTTCTACTGATGATTCTTGATTTCACACTTCTCTTACCGGAGTCACCTAGTGCAG,8440 fluorescence intensity (a.u.)
3,TGGTGTGCTCTGGGTGTGTGACATTTCTCCCATTTTTAATCGGAGTCACCTAGTGCAG,8600 fluorescence intensity (a.u.)
4,AGCGCACTCCCATCTCCTCGTCTCACCTCATCTTCTCGGCCGGAGTCACCTAGTGCAG,8440 fluorescence intensity (a.u.)
5,TACCCCGCCCCTGCGCCATCGCCATCGCCATCAATCCACGCGGAGTCACCTAGTGCAG,9070 fluorescence intensity (a.u.)
6,ATGCATGCACTGCTGTGGAACTGGTTTGCACTCTCTTACCCGGAGTCACCTAGTGCAG,8230 fluorescence intensity (a.u.)
7,TGGGCCGGCCCCTGCATTTCTGTATACTGGGCCTAGATTTCGGAGTCACCTAGTGCAG,8160 fluorescence intensity (a.u.)
8,GTTGCAACCTCCCGCCTCACCCGCCGCCATTGACGACCACCGGAGTCACCTAGTGCAG,9260 fluorescence intensity (a.u.)
9,TGTTTTTATTTAGGACCGTTTTTGTTCTTGCCATTTTTTCCGGAGTCACCTAGTGCAG,12100 fluorescence intensity (a.u.)
10,CGGTGGAGGGCGGAGGGCGTCGAGCTCCGGCGGCGGAGGTCGGAGTCACCTAGTGCAG,8610 fluorescence intensity (a.u.)
11,GTTCCGCCGCTACAAGCTCGACCCCTTCGCGTAAACCTCTCGGAGTCACCTAGTGCAG,8620 fluorescence intensity (a.u.)
12,TTTTTTTTTCCTTTTGCTGACATGCATTATGTTTTCTATTCGGAGTCACCTAGTGCAG,10000 fluorescence intensity (a.u.)
13,CTGCTTACTCCACTCTTTCTCTGCTTTCTGGTTCATCTATCGGAGTCACCTAGTGCAG,11400 fluorescence intensity (a.u.)
14,TCGCTCGATCTCGTAGTAGACATCGCCTACACACATATACCGGAGTCACCTAGTGCAG,8140 fluorescence intensity (a.u.)
15,GATCTGACCGGATTTTGCGGTGGGGTTTTCTTTTTTGGGTCGGAGTCACCTAGTGCAG,12200 fluorescence intensity (a.u.)
16,CACCGCTCCGCCCTTTATTAAGCGCGGTGCATTTCGCGCTCGGAGTCACCTAGTGCAG,8220 fluorescence intensity (a.u.)
17,GTGTGTTGGTGTTTCTTAGTCTATGTTTTCTTTATATTATCGGAGTCACCTAGTGCAG,14400 fluorescence intensity (a.u.)
18,AGCGAGATCCGATTGTTTATCTGTAACCCCATTTTAAACCCGGAGTCACCTAGTGCAG,9780 fluorescence intensity (a.u.)
19,GGTCCTACAGGTCAATAACTTTACCATTTTTTCCTCGTCTCGGAGTCACCTAGTGCAG,9210 fluorescence intensity (a.u.)
20,AGGAATCGTAAACTGCAAAACATCCTTTTCACATTCCTACCGGAGTCACCTAGTGCAG,9000 fluorescence intensity (a.u.)
21,TCTTCGTATAAAAAGTATGACGCCGTTGACTTTTCATATACGGAGTCACCTAGTGCAG,14500 fluorescence intensity (a.u.)

# Random excerpt: two entries already listed, in no set order.
row,Sequence,binding signal
10,CGGTGGAGGGCGGAGGGCGTCGAGCTCCGGCGGCGGAGGTCGGAGTCACCTAGTGCAG,8610 fluorescence intensity (a.u.)
6,ATGCATGCACTGCTGTGGAACTGGTTTGCACTCTCTTACCCGGAGTCACCTAGTGCAG,8230 fluorescence intensity (a.u.)
